Measured data: PubChem BioAssay AID1508588 (Peter MacCallum Cancer Centre, 2020)
Screen: 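Knock-downs boosting vemurafenib effects on melanoma cell growth or lactate release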 (primary screen). Cell system: human WM266.4 melanoma cells (BRAF V600 mutant). Knock-down reagent: siRNA pool against human genes, 40 nM. Duration: 96 h from transfection to read-out. Conditions: vemurafenib 300 nM (about IC25), added 48 h after transfection, for 48 h; comparison arm got DMSO vehicle only. Measurement: 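Ratios to non-targeting siRNA for cell gain, counted as DAPI nuclei after minus before drug and averaged over two replicates, and for absorbance-read medium lactate per cell; both binned into fold-change classes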. Scale: cell gain with vemurafenib: higher = more cell gain than with non-targeting siRNA; lactate per cell with vemurafenib: higher = more lactate made per cell. Hit rule: 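Enhancement is called by pairing each knock-down's vehicle-arm and drug-arm fold-change classes for viability or glycolysis; which class combinations qualify is not given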. Calls: active = enhances vemurafenib effect; inactive = no enhancement seen.
This is a random part of about 18,000 reagents tested. Over the whole deposit, 790 (4.4%) got an active call. 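Calls rest on a combination of fold-change classes in drug and vehicle arms, not all shown here.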 The numbers tell different reagents against one gene apart.

gene	pool no.	cell gain with vemurafenib	lactate per cell with vemurafenib	outcome
CTSH	1	0.3	0.78	inactive
ZNF226	1	0.71	0.8	inactive
CFHR4	1	1.01	0.29	inactive
SDF4	1	0.14	2.3	inactive
BAX	1	0.24	1.2	inactive
BBOF1	1	0.95	1.25	inactive
OVOS2P	1	0.27	0.98	inactive
LINC03122	1	0.16	1.72	inactive
ACSBG2	1	1.31	0.6	inactive
ILK	1	0.92	0.8	inactive
ILK	2	0.47	1.2	inactive
EOLA2	1	0.35	0.62	inactive
MSH2	1	0.52	0.73	inactive
LAMTOR3	1	1.1	0.77	inactive
ZNF205	1	0.75	0.79	inactive
CCL21	1	0.52	0.35	inactive
PCDHB5	1	0.87	0.32	inactive
BCOR	1	0.4	0.96	inactive
P2RY1	1	0.82	0.89	inactive
SMURF2	1	0.3	1.64	inactive
ZNF414	1	0.62	0.86	inactive
MRPS9	1	0.78	1.17	inactive
ROPN1	1	1	0.87	inactive
EIF2B3	1	0.7	0.64	inactive
PNMA6A	1	0.9	0.57	inactive
C9orf72	1	0.43	1.08	inactive
CEBPG	1	0.6	0.92	inactive
NCCRP1	1	0.69	0.8	inactive
TRMO	1	0	0.66	active
FTO	1	1.19	0.98	inactive
WIPI2	1	0.38	1.58	inactive
CCL7	1	0.71	0.52	inactive
CCBE1	1	0.1	2.13	inactive
FBXL20	1	0.58	0.91	inactive
NR4A1	1	0.63	1.02	inactive
CPS1	1	0.41	1.66	inactive
PSD3	1	0.26	1.81	inactive
ABHD13	1	0.41	0.93	inactive

Individual results from above.
P2RY1, outcome → inactive
For “outcome”, TRMO is entered as active
Entry for ILK #1 under “lactate per cell with vemurafenib”: 0.8
Entry of BBOF1 under “lactate per cell with vemurafenib”: 1.25
Under “outcome”, ROPN1 reads inactive
CEBPG, cell gain with vemurafenib = 0.6

Additional reagents follow:
gene	pool no.	cell gain with vemurafenib	lactate per cell with vemurafenib	outcome
ABTB2	1	0.33	1.58	inactive
CNN2	1	0.7	1.71	inactive
RNASE4	1	0.63	1.68	inactive
C7orf25	1	0.69	0.52	inactive
EIF3M	1	0.29	0.64	inactive
TM2D2	1	0.64	0.82	inactive
INHA	1	0.6	1.16	inactive
FDFT1	1	0.34	0.22	inactive
OR5M9	1	0.77	0.72	inactive
ULBP1	1	0.22	0.4	inactive
H2AX	1	0.11	1.38	inactive
AURKB	1	-0.09	4.94	inactive
IRF2BPL	1	0.77	0.8	inactive
ABCB11	1	0.47	1.4	inactive
LANCL2	1	1.01	0.93	inactive
CD19	1	0.85	0.39	inactive
FZD5	1	1.07	1.24	inactive
CCDC121	1	0.59	0.12	active
EFEMP1	1	1.16	0.72	inactive
B3GNT7	1	0.6	1.44	inactive
TBC1D3F	1	0.81	0.64	inactive
TPM2	1	0.74	0.14	active
GGA3	1	0.24	1.02	inactive
TUBA1B	1	-0.13	3.27	inactive
SRPK3	1	1.23	0.44	inactive
USP30	1	0.78	0.7	inactive
G6PD	1	0.29	2.08	inactive
RHOB	1	0.4	1.15	inactive
KLRC3	1	0.1	2.95	inactive
CS	1	1.04	0.38	inactive
MRPS15	1	0.56	1.37	inactive
SELP	1	0.58	0.92	inactive
NBPF8	1	0.46	1.02	inactive
TAB2	1	0.32	1.08	inactive
CASKIN2	1	0.56	1.26	inactive
RPL26	1	-0.09	2.49	inactive
KCNIP2	1	0.58	1.16	inactive
POM121L12	1	0.31	-0.08	active
TONSL	1	0.62	0.58	inactive
WDR41	1	0.77	0.42	inactive
CELA2B	1	0.22	1.37	inactive
CFAP221	1	0.58	1.58	inactive
TBXT	1	0.88	0.63	inactive
NCAM1	1	0.73	1.3	inactive
SMG7	1	0.23	0.38	active
GTPBP1	1	0.82	0.82	inactive
CRNN	1	0.01	2.5	inactive
ABCF3	1	0.43	0.56	inactive
RBM17	1	0.43	0.53	inactive
DENND1B	1	0.65	1.25	inactive
DENND1B	2	0.41	0.55	inactive
SPEM2	1	0.64	1.02	inactive
CFHR3	1	0.74	0.94	inactive
CCDC30	1	1.16	0.95	inactive
HPR	1	0.52	0.92	inactive
ZCCHC2	1	0.21	1.14	inactive
PFDN6	1	0.07	0.51	active
POLR1D	1	0.2	0.62	inactive
ZNF419	1	0.87	0.65	inactive
KIF23	1	0.02	4.35	inactive
MTERF4	1	0.12	1.06	inactive
DCAF7	1	0.4	0.81	inactive
ZNF101	1	0.82	0.97	inactive
CCDC73	1	1.16	0.7	inactive
C4orf36	1	0.29	1.36	inactive
PIGO	1	0.18	1.22	inactive
CHCT1	1	0.78	0.76	inactive
POLR2D	1	0.23	1.03	inactive
SLC8A3	1	1.18	0.54	inactive
